At least one peptide structure holds a part that was inferred or is arguable (an end, a ring closure or a residue). Where a SMILES comes first, the peptide text is derived from it. [ ]: non-standard residue; d: D form. The star is where a group is joined. Propanoyl(3-maleimido) = O=C1C=CC(=O)N1CCC(=O)*; Aoc = NCCCCCCCC(=O)O
Test system: Platelet count
Test: In vivo potency: platelet count after a single injection in CD-1 mice
Design: species or system mouse
Details: female CD-1 mice, single intravenous injection, 10 nmol/kg, 6 days postdose vs prior to dosing, n=4/group
Procedure: Ten to twelve-week old female CD-1 mice were administered with a single injection of the TPO derivatives indicated below at 10 nmol/kg (n=4/group). The DAC™ compounds in Table 4 are variants of TPO peptides modified to include an MPA reactive group, thereby forming an MPA-modified unconjugated peptides. The DAC™ compounds in Table 4 were administered intravenously. Albumin conjugates of the DAC™ compounds (also referred to herein as Preformed Conjugates (PC)) were injected subcutaneously. For each mouse, a blood sample was collected prior to dosing and 6 days postdose via the […]. Platelet counts were measured using an ABC Vet analyzer using standard procedures.
Platelet count fold increases are reported in Table 4 and 5 for MPA-modified TPO peptide and the albumin TPO conjugate, respectively.

`CC[C@H](C)[C@H](NC(=O)CCCCCCCNC(=O)CCCCCCCNC(=O)CCCCCCCNC(=O)[C@H](C)NC(=O)[C@H](CCCNC(=N)N)NC(=O)[C@H](C)NC(=O)[C@H](C)NC(=O)[C@H](CC(C)C)NC(=O)[C@H](Cc1c[nH]c2ccccc12)NC(=O)[C@H](CCC(N)=O)NC(=O)[C@H](CCCNC(=N)N)NC(=O)[C@H](CC(C)C)NC(=O)[C@@H](NC(=O)[C@@H]1CCCN1C(=O)CNC(=O)[C@H](CCC(=O)O)NC(=O)[C@@H](NC(=O)CCCCCCCNC(=O)CCCCCCCNC(=O)CCN1C(=O)C=CC1=O)[C@@H](C)CC)[C@@H](C)O)C(=O)N[C@@H](CCC(=O)O)C(=O)NCC(=O)N1CCC[C@H]1C(=O)N[C@H](C(=O)N[C@@H](CC(C)C)C(=O)N[C@@H](CCCNC(=N)N)C(=O)N[C@@H](CCC(N)=O)C(=O)N[C@@H](Cc1c[nH]c2ccccc12)C(=O)N[C@@H](CC(C)C)C(=O)N[C@@H](C)C(=O)N[C@@H](C)C(=O)N[C@@H](CCCNC(=N)N)C(=O)N[C@@H](C)C(N)=O)[C@@H](C)O` [MPA-modified form of SEQ ID NO: 171, (reactive group)-OA-OA-IEGPTLRQWLAARA-OA-OA-OA-IEGPTLRQWLAARA] ({Propanoyl(3-maleimido)-Aoc-Aoc}-IEGPTLRQWLAARA[Aoc][Aoc][Aoc]IEGPTLRQWLAARA-NH2) was tested, and the “Platelet Count Fold Increase” value was 3.0 fold.
